# From the supplement of paper PMC8728848
# The list shows a part of the results.
# B1: B936 (Bifidobacterium sp) (protein)
# chain: MKNWKKAIALVASAAALVSVAACGPSNAGGSSDSGKKTVGFVAVGPEGGFRTANEKDIQKAFEDAGFDLTYSPTQNNDQQKQIQAFNKFVNDEVDAIILSSTEDSGWDDSLKKAAEAEIPVFTVDRNVDVKDAEAKKAIVAHIGPSNVWCGEQAAEFVNKNFPDGANGFILEGPAGLSVVKDRGTGWGNKVASNVKVLESQSANWSTDEAKTVTAGLLDKYKSDNPQFIFAQNDEMGLGAAQAVDAAGLKGKVKIITIDGTKNALQALVDGDLSYVIEYNPIFGKETAQAVKDYLDGKTVEKDIEIESKTFDAASAKEALDNNTRAY
# Legend:
# Experiment in all cases: glycan array binding signal (z-score within array); higher = stronger binding
# Conditions in all cases: glycan notation: IUPAC condensed, linker removed
# [1] = target: Gal(b1-4)GlcNAc(b1-3)Gal(b1-4)GlcNAc(b1-6)[Gal(b1-3)]GalNAc
# Procedure, shortened: (§1)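 Glycan array data came from 3228 arrays in the Consortium for Functional Glycomics database, and only arrays with an available protein sequence were kept. Glycan names were put into IUPAC-condensed notation, and columns mapping to the same glycan were averaged. The binding signal is a within-array Z-score, averaged across arrays of one protein sequence run at different concentrations or buffers and across linkers. A negative Z-score can be read as non-binding.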
# [2] = target: Gal(b1-4)GlcNAc(b1-3)Gal(b1-4)[Fuc(a1-3)]GlcNAc(b1-3)Gal(b1-4)[Fuc(a1-3)]GlcNAc
# Procedure, shortened: as §1
# [3] = target: Gal(b1-4)GlcNAc(b1-3)GalNAc
# Procedure, shortened: as §1
# [4] = target: Gal(b1-4)GlcNAc(b1-3)[Fuc(a1-3)GlcNAc(b1-6)]Gal(b1-4)Glc
# Procedure, shortened: as §1
# [5] = target: Gal(b1-4)GlcNAc(b1-3)[Gal(b1-4)GlcNAc(b1-6)]Gal(b1-4)GlcNAc
# Procedure, shortened: as §1
# [6] = target: Gal(b1-4)GlcNAc(b1-3)[GlcNAc(b1-6)]Gal(b1-4)GlcNAc
# Procedure, shortened: as §1
# [7] = target: Gal(b1-4)GlcNAc(b1-6)Gal(b1-4)GlcNAc
# Procedure, shortened: as §1
# [8] = target: Gal(b1-4)GlcNAc(b1-6)GalNAc
# Procedure, shortened: as §1
# [9] = target: Gal(b1-4)GlcNAc(b1-6)[Gal(b1-3)]GalNAc
# Procedure, shortened: as §1
# [10] = target: Gal(b1-4)GlcNAc(b1-6)[Gal(b1-4)GlcNAc(b1-3)]GalNAc
# Procedure, shortened: as §1
# Gal(b1-4)GlcNAc6P = target: Gal(b1-4)GlcNAc6P
# Procedure, shortened: as §1
# Gal(b1-6)Gal = target: Gal(b1-6)Gal
# Procedure, shortened: as §1
# Gal3S(b1-3)GalNAc = target: Gal3S(b1-3)GalNAc
# Procedure, shortened: as §1
# Gal3S(b1-3)GlcNAc = target: Gal3S(b1-3)GlcNAc
# Procedure, shortened: as §1
# [11] = target: Gal3S(b1-3)[Fuc(a1-4)]GlcNAc
# Procedure, shortened: as §1
# Gal3S(b1-4)Glc = target: Gal3S(b1-4)Glc
# Procedure, shortened: as §1
# Gal3S(b1-4)Glc6S = target: Gal3S(b1-4)Glc6S
# Procedure, shortened: as §1
# Gal3S(b1-4)GlcNAc = target: Gal3S(b1-4)GlcNAc
# Procedure, shortened: as §1
# [12] = target: Gal3S(b1-4)[Fuc(a1-3)]Glc6S
# Procedure, shortened: as §1
# [13] = target: Gal3S(b1-4)[Fuc(a1-3)]GlcNAc
# Procedure, shortened: as §1
# [14] = target: Gal3S(b1-4)[Fuc(a1-3)]GlcNAc6S
# Procedure, shortened: as §1
# Gal3S4S(b1-4)GlcNAc = target: Gal3S4S(b1-4)GlcNAc
# Procedure, shortened: as §1
# Gal3S6S(b1-4)GlcNAc = target: Gal3S6S(b1-4)GlcNAc
# Procedure, shortened: as §1
# Gal3S6S(b1-4)GlcNAc6S = target: Gal3S6S(b1-4)GlcNAc6S
# Procedure, shortened: as §1
# Gal4S(b1-4)GlcNAc = target: Gal4S(b1-4)GlcNAc
# Procedure, shortened: as §1
# Gal4S6S(b1-4)GlcNAc = target: Gal4S6S(b1-4)GlcNAc
# Procedure, shortened: as §1
# Gal6P(b1-4)GlcNAc = target: Gal6P(b1-4)GlcNAc
# Procedure, shortened: as §1
# Gal6S(b1-3)GlcNAc = target: Gal6S(b1-3)GlcNAc
# Procedure, shortened: as §1
# Gal6S(b1-3)GlcNAc6S = target: Gal6S(b1-3)GlcNAc6S
# Procedure, shortened: as §1
# Gal6S(b1-4)Glc = target: Gal6S(b1-4)Glc
# Procedure, shortened: as §1
# Gal6S(b1-4)Glc6S = target: Gal6S(b1-4)Glc6S
# Procedure, shortened: as §1
# Gal6S(b1-4)GlcNAc = target: Gal6S(b1-4)GlcNAc
# Procedure, shortened: as §1
# Gal6S(b1-4)GlcNAc6S = target: Gal6S(b1-4)GlcNAc6S
# Procedure, shortened: as §1
# GalNAc(a1-3)Gal = target: GalNAc(a1-3)Gal
# Procedure, shortened: as §1
# GalNAc(a1-3)GalNAc = target: GalNAc(a1-3)GalNAc
# Procedure, shortened: as §1
# [15] = target: GalNAc(a1-3)GalNAc(b1-3)Gal(a1-4)Gal(b1-4)Glc
# Procedure, shortened: as §1
# [16] = target: GalNAc(a1-3)GalNAc(b1-3)Gal(a1-4)Gal(b1-4)GlcNAc
# Procedure, shortened: as §1
binder,measurement,setting,value
B1,glycan array binding signal (z-score),[1],0.28
same,glycan array binding signal (z-score),[2],-0.113
same,glycan array binding signal (z-score),[3],-0.511
same,glycan array binding signal (z-score),[4],-0.662
same,glycan array binding signal (z-score),[5],-0.009
same,glycan array binding signal (z-score),[6],-0.05
same,glycan array binding signal (z-score),[7],-0.507
same,glycan array binding signal (z-score),[8],0.082
same,glycan array binding signal (z-score),[9],0.173
same,glycan array binding signal (z-score),[10],0.533
same,glycan array binding signal (z-score),Gal(b1-4)GlcNAc6P,0.287
same,glycan array binding signal (z-score),Gal(b1-6)Gal,0.112
same,glycan array binding signal (z-score),Gal3S(b1-3)GalNAc,-0.048
same,glycan array binding signal (z-score),Gal3S(b1-3)GlcNAc,0.121
same,glycan array binding signal (z-score),[11],-0.11
same,glycan array binding signal (z-score),Gal3S(b1-4)Glc,0.035
same,glycan array binding signal (z-score),Gal3S(b1-4)Glc6S,0.373
same,glycan array binding signal (z-score),Gal3S(b1-4)GlcNAc,0.227
same,glycan array binding signal (z-score),[12],0.724
same,glycan array binding signal (z-score),[13],-0.07
same,glycan array binding signal (z-score),[14],-0.058
same,glycan array binding signal (z-score),Gal3S4S(b1-4)GlcNAc,-0.572
same,glycan array binding signal (z-score),Gal3S6S(b1-4)GlcNAc,0.29
same,glycan array binding signal (z-score),Gal3S6S(b1-4)GlcNAc6S,0.156
same,glycan array binding signal (z-score),Gal4S(b1-4)GlcNAc,-0.343
same,glycan array binding signal (z-score),Gal4S6S(b1-4)GlcNAc,-0.45
same,glycan array binding signal (z-score),Gal6P(b1-4)GlcNAc,-0.541
same,glycan array binding signal (z-score),Gal6S(b1-3)GlcNAc,-0.26
same,glycan array binding signal (z-score),Gal6S(b1-3)GlcNAc6S,-0.294
same,glycan array binding signal (z-score),Gal6S(b1-4)Glc,-0.536
same,glycan array binding signal (z-score),Gal6S(b1-4)Glc6S,-1.06
same,glycan array binding signal (z-score),Gal6S(b1-4)GlcNAc,-0.704
same,glycan array binding signal (z-score),Gal6S(b1-4)GlcNAc6S,0.127
same,glycan array binding signal (z-score),GalNAc(a1-3)Gal,-0.628
same,glycan array binding signal (z-score),GalNAc(a1-3)GalNAc,-0.036
same,glycan array binding signal (z-score),[15],-0.58
same,glycan array binding signal (z-score),[16],-0.476
